The campaign covered roughly 350,000 compounds. About 220 (0.063%) were called active. The inconclusive results got no clear call from the source; some entries with a clear call stand among them for comparison. Calls come from the whole dose curve; as a rule, active = well fitted activation curve with a large enough effect; inconclusive = small, poorly fitted or top-dose-only effect; inactive = no such curve, though single readings can be large or run the other way. Where the call is inconclusive, the potency comes from a doubtful curve fit.
Assay: qHTS for Activators of Integrin-Mediated Alleviation for Muscular Dystrophy; note: nearly all actives have a fitted effect of over 60% in size;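 for activation: 100% = response of the positive control SU9516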
Settings: alpha7betagal myoblasts, beta-gal FDG fluorescence, 48 h; activation: at 38.3 µM (top of the series)
Summary of the method: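 alpha7betagal+/- myoblasts (passage 13, 250/well) treated 48 h at 37C with compounds at 1:260 dilution of DMSO stock. Lysed, then beta-galactosidase activity read as FDG fluorescence (ex 480/em 540) after 30 min, with pre-read for autofluorescence.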
Potency is the fitted concentration of half-maximal effect.

Potency, inactive:
CC(C)(C)C(=O)NC(=S)Nc1sc2c(c1C#N)CCCCC2
CC(C)(C)NC(=O)Cn1nnc(-c2ccc(OCc3c(F)cccc3Cl)cc2)n1
COc1cc(NC(=O)C23CC4CC(C2)CC(n2nnc(C)n2)(C4)C3)c(OC)cc1Cl
COc1ccc(/C=N/n2c(-c3ccc(C)cc3)n[nH]c2=S)cc1OC
CCn1cc(C(=O)NCc2ccco2)c(=O)c2cc(F)c(N3CCN(C(=O)c4ccco4)CC3)cc21
Nc1nc(Nc2cccc(F)c2)nc(N2CCOCC2)c1[N+](=O)[O-]
Cc1cccc(N2CCC(N=CN(C)C)=N2)c1
Cc1ccc(N(C(=O)Nc2ccccc2)C2=NCC(C)S2)cc1 (stereo not drawn)
COCC(C)NC(=O)C(C)N1c2cccc3cccc(c23)S1(=O)=O (stereo not drawn)
Cc1cc(C)n(-c2nc3ccccc3c(=O)n2OCC(=O)N(C)C)n1
O=C(NNC(=S)Nc1ccccc1Cl)c1ccccc1
Cc1ccc(-n2ncc3c(NCc4cccnc4)ncnc32)cc1C
CC1=NN(C(=S)Nc2ccccc2)C(C)(C)C1
Cc1ccc(NS(=O)(=O)c2ccc(C(=O)N3CCN(c4ncccn4)CC3)cc2)cc1
CCN(CC)c1ccc(/C=C2/SC(=O)N(C(C)C)C2=O)o1
CC(C)c1ccc(N2C(=NC(=O)C3CCCO3)SC3CS(=O)(=O)CC32)cc1 (stereo not drawn)
CN(C(=O)c1ccc(COc2ccccc2Br)o1)c1ccccc1
C/C(=N/NC(=O)CNC(=O)COc1cccc(C)c1)c1ccco1

Of the compounds above, these have a tert-butyl group:
Potency, inactive:
CC(C)(C)C(=O)NC(=S)Nc1sc2c(c1C#N)CCCCC2
CC(C)(C)NC(=O)Cn1nnc(-c2ccc(OCc3c(F)cccc3Cl)cc2)n1

Next part.

Potency, inconclusive:
O=C(Cn1ccc2ccccc2c1=O)NCCC(=O)Nc1ccc(F)cc1F 1.12 µM [activator, partial curve, poor fit]
O=C1CC(N2CCc3ccccc32)C(=O)N1c1ccc(F)cc1 (stereo not drawn) 14.1 µM [activator, single point]
COCCCNC(=O)c1cc(C)nn1-c1ccccc1 3.16 µM [activator, single point]
CS(=O)(=O)N(CC(=O)N1CCN(Cc2ccccc2)CC1)c1ccc(F)cc1 22.4 µM [activator, single point]
Cc1noc(C)c1COc1ccc(C(=O)Nc2ccccn2)cc1 5.01 µM [activator, single point]
CN1CCN(C(=O)c2ccc(F)c(F)c2)CC1 28.2 µM [activator, single point]
CCOc1ccc(NS(=O)(=O)c2cccc(C(=O)NCC3(N(C)C)CCCCC3)c2)cc1 5.01 µM [activator, single point]
Cc1ccc(C(=O)Nc2c3c(nn2C(C)(C)C)CS(=O)(=O)C3)cc1[N+](=O)[O-] 28.2 µM [activator, single point]
Cc1ccccc1S(=O)(=O)N1C[C@H]2CON(C)[C@H]2C[C@H]1c1cccc(-c2ccccc2)c1 5.62 µM [activator, partial curve]
COc1ccccc1CNC(=O)CCNC(=O)N1CC(=O)Nc2ccccc21 4.47 µM [activator, single point]
O=C1/C(=C\c2ccc(O)cc2)SC(=S)N1c1cccnc1 3.16 µM [activator, single point]
CNC(=S)N(Cc1ccc(OC)cc1)Cc1cc2ccc(C)cc2[nH]c1=O 5.01 µM [activator, single point]
Cc1noc(/C=C/N(C)C)c1S(=O)(=O)N1CCCC(C(=O)Nc2ccccc2F)C1 (stereo not drawn) 11.2 µM [activator, single point]
COc1ccc2[nH]cc(C(=O)CN3CC(C)CC(C)C3)c2c1 (stereo not drawn) 28.2 µM [activator, single point]
O=C(Nc1ccc(Cl)c(S(=O)(=O)N2CCOCC2)c1)C1CCC1 28.2 µM [activator, partial curve, poor fit]
COc1ccc(N2CCN(C(=O)CSc3nnc4nc(C)cc(C)n34)CC2)cc1 0.355 µM [activator, full curve, poor fit]
CSc1nc(C)c2c(n1)N(c1ccc(C(C)C)cc1)CC2 22.4 µM [activator, single point]
Cn1cc(CN2CCCC(CO)(Cc3ccccc3)C2)cn1 (stereo not drawn) 11.2 µM [activator, single point]
COc1ccc(N2C(=O)CC(C#N)=C2N)cc1 5.01 µM [activator, single point]
CCC1(C)Cc2ccccc2-c2nc(SCC(N)=O)[nH]c(=O)c21 (stereo not drawn) 5.01 µM [activator, single point]
COc1ccc(S(=O)(=O)N2CCCc3ccccc32)cc1[N+](=O)[O-] 12.6 µM [activator, single point]
Cc1ccc(CCNC(=O)c2ccc(CS(=O)(=O)Cc3ccc(F)cc3)o2)cc1 28.2 µM [activator, single point]
COc1ccccc1N(Cc1ccccc1)S(=O)(=O)c1cccc(C(=O)Nc2cc(C)ccn2)c1 3.16 µM [activator, partial curve, poor fit]
O=C1CS/C(=N/N=C/c2ccco2)N1Cc1ccc(F)cc1 17.8 µM [activator, single point]
CC1CCN(S(=O)(=O)c2ccc(C(=O)Nc3ccccc3-c3nc4ccccc4[nH]3)cc2)CC1 22.4 µM [activator, single point]
O=C(NCc1ccccc1Cl)c1cc(C(=O)C2CC2)c[nH]1 5.01 µM [activator, single point]
CC1CCCCN1Cc1nc2c(c(=O)n(C)c(=O)n2C)n1CCCc1ccccc1 (stereo not drawn) 31.6 µM [activator, single point]
CCc1nn2c(N)c(/C=C3\C=Nc4ccccc43)c(=O)nc2s1 12.6 µM [activator, single point]
COc1ccc(-n2nc(N)c3c(=O)oc(N(C)C)nc32)cc1 22.4 µM [activator, partial curve, poor fit]
O=C(Nc1cccc(C(=O)O)c1)/C(=C\c1ccc2c(c1)OCO2)NC(=O)c1ccc(Br)o1 8.91 µM [activator, partial curve, poor fit]
COc1ccc(C(=O)OCC(=O)NC2CC2)cc1OC 5.01 µM [activator, single point]
CC(=O)NC(Cc1cccc(F)c1)C(=O)NC1CCN(c2nnnn2-c2ccccc2)CC1 (stereo not drawn) 25.1 µM [activator, single point]
CCNC(=S)N1CCN(c2nc(-c3cccc(OC)c3)cs2)CC1 4.47 µM [activator, single point]
CCCc1nnc(NC(=O)CCC(=O)N2CCN(Cc3cc(F)ccc3OC)CC2)s1 28.2 µM [activator, single point]
Cc1cc(NC(=O)CCC(=O)N(C(C(=O)NC(C)(C)C)c2ccccc2Cl)C(C)(C)C)no1 (stereo not drawn) 5.01 µM [activator, single point]
CN(C(=O)CSc1nc(-c2ccc(C(C)(C)C)cc2)c(C#N)c(=O)[nH]1)C1CCCCC1 2.24 µM [activator, full curve, poor fit]
COc1ccc(C(=O)Nc2cc(=O)[nH]c3ncnn23)cc1 5.01 µM [activator, single point]
CC(=O)Oc1ccc(C(=O)c2ccccc2)c(OC(C)=O)c1 3.55 µM [activator, single point]
CSc1cccc(-n2ccc(=O)c(C)c2C)c1 28.2 µM [activator, partial curve, poor fit]
Cc1ccc(S(=O)(=O)N2CCOCC2)cc1C(=O)Nc1c(C)n(C)n(-c2ccccc2)c1=O 3.16 µM [activator, single point]
CCCN1CCC(NC(=O)CCc2nnc(-c3ccccc3)o2)CC1 5.01 µM [activator, single point]
Nc1ccc(S(=O)(=O)N2CCCC2C(=O)O)cc1 (stereo not drawn) 28.2 µM [activator, single point]
Cc1cccc(NC(=O)c2cc3ccccc3oc2=O)c1 3.55 µM [activator, full curve]
CC(C)n1c(SCC(=O)NC2CC2)nnc1C1CC1 28.2 µM [activator, single point]
Cn1c(COc2ccc(Cl)cc2)nnc1SCC(=O)Nc1ccc2c(c1)CCC2 22.4 µM [activator, single point]
CN1CCN(C(CNC(=O)Nc2ccc(Cl)cc2)c2ccc(F)cc2)CC1 (stereo not drawn) 3.98 µM [activator, single point]

Arranged by molecular weight (ascending): part of the list above.
Potency, inconclusive:
COc1ccc(C(=O)OCC(=O)NC2CC2)cc1OC 5.01 µM [activator, single point]
COc1ccc2[nH]cc(C(=O)CN3CC(C)CC(C)C3)c2c1 (stereo not drawn) 28.2 µM [activator, single point]
O=C(NCc1ccccc1Cl)c1cc(C(=O)C2CC2)c[nH]1 5.01 µM [activator, single point]
CCCN1CCC(NC(=O)CCc2nnc(-c3ccccc3)o2)CC1 5.01 µM [activator, single point]

Following part.

activation, inconclusive:
O=C(Oc1ccc(Br)cc1C(=S)N1CCOCC1)c1cccc([N+](=O)[O-])c1 -65.3% [activator]
CN(C)c1ccc(/C=N/NC(=O)C2COc3ccccc3O2)o1 (stereo not drawn) -32.8% [activator]
NC(=O)C1(c2ccccc2)CCOCC1 -39.5% [activator]
C#CC(=O)N(c1cc(OC)ccc1OC)C(C(=O)NC1CCCC1)c1cccs1 (stereo not drawn) -57.2% [activator]
